Laboratory results published in the supplement of paper PMC12823440, “Inhibitors supercharge kinase turnover through native proteolytic circuits” (Nature, 2025).
Counter-ions that a name gives are not always drawn. The list shows a part of the results. The calls rarely recur for the same compound in another form.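 Kinases, fused to nanoluciferase, were expressed in K562 cells; luminescence was measured every 4 h from 2 to 18 h as percent of control (DMSO = 100%, positive control = 0%). A time point is decreased if signal falls significantly (2 sigma). Hits were called by the authors by a rule that is not shown; the count of time points alone does not decide it.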

Sequences of proteins named here, by UniProt entry; tags and fusion partners are left off. A change or cut given only in a name is not applied to a line headed by its entry.
UniProt Q06187: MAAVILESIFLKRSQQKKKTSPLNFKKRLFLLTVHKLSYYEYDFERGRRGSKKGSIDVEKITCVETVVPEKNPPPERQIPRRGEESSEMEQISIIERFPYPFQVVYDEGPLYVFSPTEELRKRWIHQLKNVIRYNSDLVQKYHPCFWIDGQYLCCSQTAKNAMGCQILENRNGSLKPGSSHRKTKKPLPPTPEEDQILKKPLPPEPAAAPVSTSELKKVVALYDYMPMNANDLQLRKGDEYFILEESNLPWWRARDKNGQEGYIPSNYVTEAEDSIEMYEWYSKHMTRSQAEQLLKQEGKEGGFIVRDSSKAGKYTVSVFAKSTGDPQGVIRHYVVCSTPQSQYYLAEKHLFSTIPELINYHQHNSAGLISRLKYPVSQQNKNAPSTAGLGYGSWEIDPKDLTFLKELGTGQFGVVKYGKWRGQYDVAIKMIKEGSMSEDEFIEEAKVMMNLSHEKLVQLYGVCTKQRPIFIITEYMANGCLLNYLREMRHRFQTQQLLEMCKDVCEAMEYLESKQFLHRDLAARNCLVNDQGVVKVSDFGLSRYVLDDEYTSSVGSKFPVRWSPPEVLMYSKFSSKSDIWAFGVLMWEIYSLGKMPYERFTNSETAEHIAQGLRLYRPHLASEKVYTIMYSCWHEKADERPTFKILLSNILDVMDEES
UniProt Q9UQM7, whole entry: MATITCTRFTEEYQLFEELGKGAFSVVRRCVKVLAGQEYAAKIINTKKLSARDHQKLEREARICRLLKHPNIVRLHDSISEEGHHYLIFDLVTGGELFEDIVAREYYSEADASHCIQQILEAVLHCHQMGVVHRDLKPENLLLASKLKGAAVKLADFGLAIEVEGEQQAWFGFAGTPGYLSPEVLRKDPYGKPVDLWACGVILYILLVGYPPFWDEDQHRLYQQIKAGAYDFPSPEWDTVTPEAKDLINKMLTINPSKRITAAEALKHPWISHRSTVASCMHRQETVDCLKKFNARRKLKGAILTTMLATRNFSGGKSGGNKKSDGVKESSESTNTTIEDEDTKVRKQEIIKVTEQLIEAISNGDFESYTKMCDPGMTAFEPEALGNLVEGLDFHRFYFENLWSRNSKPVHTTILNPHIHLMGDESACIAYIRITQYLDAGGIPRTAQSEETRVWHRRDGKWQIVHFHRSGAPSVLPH
UniProt Q13555: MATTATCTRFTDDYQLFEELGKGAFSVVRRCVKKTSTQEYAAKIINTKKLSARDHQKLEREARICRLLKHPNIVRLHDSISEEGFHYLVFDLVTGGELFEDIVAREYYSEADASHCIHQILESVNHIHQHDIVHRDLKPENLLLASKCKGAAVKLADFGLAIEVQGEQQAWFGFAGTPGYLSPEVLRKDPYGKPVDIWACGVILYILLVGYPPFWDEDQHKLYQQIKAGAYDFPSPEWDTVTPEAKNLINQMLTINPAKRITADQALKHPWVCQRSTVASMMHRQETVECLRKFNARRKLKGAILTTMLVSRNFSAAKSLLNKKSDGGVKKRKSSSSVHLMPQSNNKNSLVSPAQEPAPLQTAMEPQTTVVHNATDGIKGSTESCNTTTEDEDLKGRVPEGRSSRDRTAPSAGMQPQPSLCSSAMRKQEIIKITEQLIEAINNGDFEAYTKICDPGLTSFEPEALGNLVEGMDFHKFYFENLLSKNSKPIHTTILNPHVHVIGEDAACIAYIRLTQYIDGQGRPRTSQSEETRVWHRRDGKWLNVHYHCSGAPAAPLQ
UniProt Q15131: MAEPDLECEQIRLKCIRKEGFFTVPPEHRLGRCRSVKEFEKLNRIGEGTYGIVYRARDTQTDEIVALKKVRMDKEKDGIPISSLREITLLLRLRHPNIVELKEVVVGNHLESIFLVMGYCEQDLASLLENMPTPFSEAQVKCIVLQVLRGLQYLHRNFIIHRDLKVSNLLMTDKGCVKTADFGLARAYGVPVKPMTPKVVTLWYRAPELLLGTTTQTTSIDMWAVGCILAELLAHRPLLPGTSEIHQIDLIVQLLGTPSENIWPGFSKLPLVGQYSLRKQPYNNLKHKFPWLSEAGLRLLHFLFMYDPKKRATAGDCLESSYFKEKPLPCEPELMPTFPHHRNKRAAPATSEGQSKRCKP
UniProt Q00526: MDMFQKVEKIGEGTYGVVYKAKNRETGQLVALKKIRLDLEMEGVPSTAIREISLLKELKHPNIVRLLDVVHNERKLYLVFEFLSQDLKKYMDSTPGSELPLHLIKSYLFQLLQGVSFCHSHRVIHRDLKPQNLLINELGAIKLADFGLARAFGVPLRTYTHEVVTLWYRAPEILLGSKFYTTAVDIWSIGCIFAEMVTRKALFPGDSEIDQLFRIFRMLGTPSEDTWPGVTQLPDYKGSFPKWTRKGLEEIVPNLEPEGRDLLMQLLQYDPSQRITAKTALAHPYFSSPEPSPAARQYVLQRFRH
UniProt P11802: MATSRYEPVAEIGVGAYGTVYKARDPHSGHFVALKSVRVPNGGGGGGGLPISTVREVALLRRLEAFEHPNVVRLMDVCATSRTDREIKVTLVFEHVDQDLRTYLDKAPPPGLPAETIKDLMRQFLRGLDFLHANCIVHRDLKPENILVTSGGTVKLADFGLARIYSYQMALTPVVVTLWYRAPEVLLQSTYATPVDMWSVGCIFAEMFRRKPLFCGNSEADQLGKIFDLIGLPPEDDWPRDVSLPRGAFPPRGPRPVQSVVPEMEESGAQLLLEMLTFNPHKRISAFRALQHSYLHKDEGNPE
UniProt Q00535, whole entry, looked up: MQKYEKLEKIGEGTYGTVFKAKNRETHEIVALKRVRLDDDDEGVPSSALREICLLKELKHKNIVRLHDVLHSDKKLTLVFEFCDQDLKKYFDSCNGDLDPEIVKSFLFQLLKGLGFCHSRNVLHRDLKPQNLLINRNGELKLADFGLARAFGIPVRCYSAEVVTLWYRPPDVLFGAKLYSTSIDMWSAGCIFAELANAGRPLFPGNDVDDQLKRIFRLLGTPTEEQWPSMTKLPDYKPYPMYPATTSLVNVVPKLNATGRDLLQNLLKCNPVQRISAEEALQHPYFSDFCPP
UniProt Q00534, whole entry: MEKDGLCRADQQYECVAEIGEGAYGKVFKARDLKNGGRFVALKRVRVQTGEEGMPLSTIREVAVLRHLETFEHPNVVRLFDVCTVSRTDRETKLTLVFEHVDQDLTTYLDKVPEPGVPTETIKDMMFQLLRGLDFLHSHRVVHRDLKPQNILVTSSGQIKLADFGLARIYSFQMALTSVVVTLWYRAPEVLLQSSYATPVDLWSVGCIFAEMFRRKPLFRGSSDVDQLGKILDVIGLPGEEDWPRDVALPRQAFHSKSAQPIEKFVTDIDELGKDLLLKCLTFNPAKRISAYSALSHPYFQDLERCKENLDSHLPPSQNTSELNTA

Tests used:
Assay in all cases: kinase-Nluc reporter destabilization hit call (1 = scored as downregulated) (binary); higher = compound decreases kinase abundance
Details in all cases: K562; 2-18 h
BRAF_V600E = system: BRAF_V600E
BTK = BTK (UniProt Q06187)
CAMK2A = CAMK2A (UniProt Q9UQM7)
CAMK2G = CAMK2G (UniProt Q13555)
CDK10 = CDK10 (UniProt Q15131)
CDK2 = CDK2 (UniProt P24941)
CDK3 = CDK3 (UniProt Q00526)
CDK4 = CDK4 (UniProt P11802)
CDK5 = CDK5 (UniProt Q00535)
CDK6 = CDK6 (UniProt Q00534)

Measured: kinase-Nluc reporter destabilization hit call

NC[C@@](O)(c1ccc(Cl)cc1)c1ccc(-c2cn[nH]c2)cc1 (10 µM)
inactive: BRAF_V600E 0 | BTK 0 | CAMK2A 0 | CAMK2G 0 | CDK10 = 0 | CDK2 = 0 | CDK3 = 0 | CDK4 = 0 | CDK5 = 0 | CDK6 = 0

O=C(O)c1ccc(/C=C/S(=O)(=O)Cc2ccc(Cl)cc2)cc1 [Recilisib] (10 µM)
inactive: BRAF_V600E 0 | BTK 0 | CAMK2A 0 | CAMK2G 0 | CDK10 = 0 | CDK2 = 0 | CDK3 = 0 | CDK4 = 0 | CDK5 = 0 | CDK6 = 0

C=C1C(=O)[C@@]23[C@H](O)C[C@@H]4C(C)(C)C(=O)CC[C@@]4(C)[C@@H]2CC[C@@H]1[C@H]3O [Glaucocalyxin A] (2.5 µM)
inactive: BRAF_V600E 0 | BTK 0 | CAMK2A 0 | CAMK2G 0 | CDK10 = 0 | CDK2 = 0 | CDK3 = 0 | CDK4 = 0 | CDK5 = 0 | CDK6 = 0

COCCOCCc1c(C)c2cc(OC)c(O)c(C=O)c2oc1=O (10 µM)
inactive: BRAF_V600E 0 | BTK 0 | CAMK2A 0 | CAMK2G 0 | CDK10 = 0 | CDK2 = 0 | CDK3 = 0 | CDK4 = 0 | CDK5 = 0 | CDK6 = 0

NC(=O)c1cnc(-c2ccc(C3(N)CCC3)cc2)c(-c2ccccc2)c1 (10 µM)
inactive: BRAF_V600E 0 | BTK 0 | CAMK2A 0 | CAMK2G 0 | CDK10 = 0 | CDK2 = 0 | CDK3 = 0 | CDK4 = 0 | CDK5 = 0 | CDK6 = 0

N#C/C(=C\c1ccc(O)c(O)c1)C(=O)O [Tyrphostin AG30] (10 µM)
inactive: BRAF_V600E 0 | BTK 0 | CAMK2A 0 | CAMK2G 0 | CDK10 = 0 | CDK2 = 0 | CDK3 = 0 | CDK4 = 0 | CDK5 = 0 | CDK6 = 0

CC(C)=CC[C@@H](O)C1=CC(=O)c2c(O)ccc(O)c2C1=O [Shikonin] (10 µM)
inactive: BRAF_V600E 0 | BTK 0 | CAMK2A 0 | CAMK2G 0 | CDK10 = 0 | CDK2 = 0 | CDK3 = 0 | CDK4 = 0 | CDK5 = 0 | CDK6 = 0

Cc1cc(CSc2ccccc2C(=O)NCCNc2ccc(C(F)(F)F)cc2[N+](=O)[O-])on1 (10 µM)
inactive: BRAF_V600E 0 | BTK 0 | CAMK2A 0 | CAMK2G 0 | CDK10 = 0 | CDK2 = 0 | CDK3 = 0 | CDK4 = 0 | CDK5 = 0 | CDK6 = 0

CC(C)(C)Cc1[nH]nc2c1[C@@](C)(c1ccccc1)C1=C(CC(C)(C)CC1=O)N2 (10 µM)
inactive: BRAF_V600E 0 | BTK 0 | CAMK2A 0 | CAMK2G 0 | CDK10 = 0 | CDK2 = 0 | CDK3 = 0 | CDK4 = 0 | CDK5 = 0 | CDK6 = 0

COc1cc2ncnc(Oc3ccc(CC(=O)Nc4cnn(C(C)C)c4)cc3)c2cc1OC (10 µM)
inactive: BRAF_V600E 0 | BTK 0 | CAMK2A 0 | CAMK2G 0 | CDK10 = 0 | CDK2 = 0 | CDK3 = 0 | CDK4 = 0 | CDK5 = 0 | CDK6 = 0

COc1cc2ncnc(Nc3ccc(O)c(Br)c3)c2cc1OC (10 µM)
inactive: BRAF_V600E 0 | BTK 0 | CAMK2A 0 | CAMK2G 0 | CDK10 = 0 | CDK2 = 0 | CDK3 = 0 | CDK4 = 0 | CDK5 = 0 | CDK6 = 0

c1ccc(Cn2c(-c3ccc(OC[C@H](C4CCNCC4)n4c(-c5ccccc5)nc5ccccc54)cc3)nc3ccccc32)cc1 [Deltarasin] (2.5 µM)
inactive: BRAF_V600E 0 | BTK 0 | CAMK2A 0 | CAMK2G 0 | CDK10 = 0 | CDK2 = 0 | CDK3 = 0 | CDK4 = 0 | CDK5 = 0 | CDK6 = 0

Cc1cc(C(=O)NOCCO)c(Nc2ccc(I)cc2F)n(C)c1=O (10 µM)
inactive: BRAF_V600E 0 | BTK 0 | CAMK2A 0 | CAMK2G 0 | CDK10 = 0 | CDK2 = 0 | CDK3 = 0 | CDK4 = 0 | CDK5 = 0 | CDK6 = 0

CCC(=O)Nc1cccc(Oc2nc(Nc3ccc(N4CCN(C)CC4)cc3OC)ncc2Cl)c1 (10 µM)
inactive: BRAF_V600E 0 | BTK 0 | CAMK2A 0 | CAMK2G 0 | CDK10 = 0 | CDK2 = 0 | CDK3 = 0 | CDK4 = 0 | CDK5 = 0 | CDK6 = 0

O=C(Nc1cc(Cl)cc2c1[nH]c1cnccc12)c1cccnc1 (10 µM)
inactive: BRAF_V600E 0 | BTK 0 | CAMK2A 0 | CAMK2G 0 | CDK10 = 0 | CDK2 = 0 | CDK3 = 0 | CDK4 = 0 | CDK5 = 0 | CDK6 = 0

C=CC(=O)N1CC[C@@H](Oc2nc(Nc3ccc(N4CCC(N5CCN(C)CC5)CC4)cc3)c(C(N)=O)nc2CC)C1 [Naquotinib (mesylate)] (2.5 µM)
inactive: BRAF_V600E 0 | BTK 0 | CAMK2A 0 | CAMK2G 0 | CDK10 = 0 | CDK2 = 0 | CDK3 = 0 | CDK4 = 0 | CDK5 = 0 | CDK6 = 0

Cc1cc(C(=O)Nc2nc3cccc(Cl)c3n2[C@@H]2CCCCN(C(=O)/C=C/CN(C)C)C2)ccn1 [Nazartinib] (10 µM)
inactive: BRAF_V600E 0 | BTK 0 | CAMK2A 0 | CAMK2G 0 | CDK10 = 0 | CDK2 = 0 | CDK3 = 0 | CDK4 = 0 | CDK5 = 0 | CDK6 = 0

Cc1ccc(-n2nc(C(C)(C)C)cc2NC(=O)Nc2ccc(OCCN3CCOCC3)cc2)cc1 (10 µM)
inactive: BRAF_V600E 0 | BTK 0 | CAMK2A 0 | CAMK2G 0 | CDK10 = 0 | CDK2 = 0 | CDK3 = 0 | CDK4 = 0 | CDK5 = 0 | CDK6 = 0

CCCCCc1ccc(/C=C/[C@H](O)[C@@H](CO)NC)cc1 [SK1-I (hydrochloride)] (10 µM)
inactive: BRAF_V600E 0 | BTK 0 | CAMK2A 0 | CAMK2G 0 | CDK10 = 0 | CDK2 = 0 | CDK3 = 0 | CDK4 = 0 | CDK5 = 0 | CDK6 = 0

Brc1ccc(CSc2nc3ccccc3o2)cc1 [BMP signaling agonist sb4] (10 µM)
inactive: BRAF_V600E 0 | BTK 0 | CAMK2A 0 | CAMK2G 0 | CDK10 = 0 | CDK2 = 0 | CDK3 = 0 | CDK4 = 0 | CDK5 = 0 | CDK6 = 0

O=C(NCCN1CCOCC1)Nc1nc2ccc(Sc3nnc4ccc(-c5ccc(F)cc5)nn34)cc2s1 (10 µM)
inactive: BRAF_V600E 0 | BTK 0 | CAMK2A 0 | CAMK2G 0 | CDK10 = 0 | CDK2 = 0 | CDK3 = 0 | CDK4 = 0 | CDK5 = 0 | CDK6 = 0

Nc1nc2c(nc(Br)n2[C@@H]2O[C@@H]3COP(=O)(O)O[C@H]3[C@H]2O)c(=O)[nH]1 [8-Bromo-cGMP (sodium)] (10 µM)
inactive: BRAF_V600E 0 | BTK 0 | CAMK2A 0 | CAMK2G 0 | CDK10 = 0 | CDK2 = 0 | CDK3 = 0 | CDK4 = 0 | CDK5 = 0 | CDK6 = 0

Nc1nc(NCCNc2ncc(-n3ccnc3)c(-c3ccc(Cl)cc3Cl)n2)ccc1[N+](=O)[O-] (2.5 µM)
inactive: BRAF_V600E 0 | BTK 0 | CAMK2A 0 | CAMK2G 0 | CDK10 = 0 | CDK2 = 0 | CDK3 = 0 | CDK4 = 0 | CDK5 = 0 | CDK6 = 0

CO[C@H]1C[C@@H]2CC[C@@H](C)[C@@](O)(O2)C(=O)C(=O)N2CCCC[C@H]2C(=O)O[C@H]([C@H](C)C[C@@H]2CC[C@@H](OC(=O)C(C)(CO)CO)[C@H](OC)C2)CC(=O)[C@H](C)/C=C(\C)[C@@H](O)[C@@H](OC)C(=O)[C@H](C)C[C@H](C)/C=C/C=C/C=C/1C [Temsirolimus] (2.5 µM)
inactive: BRAF_V600E 0 | BTK 0 | CAMK2A 0 | CAMK2G 0 | CDK10 = 0 | CDK2 = 0 | CDK3 = 0 | CDK4 = 0 | CDK5 = 0 | CDK6 = 0

COc1cc(-c2cc(-c3ccc(N4CCNCC4)cc3)cnc2C)cc(OC)c1OC (10 µM)
inactive: BRAF_V600E 0 | BTK 0 | CAMK2A 0 | CAMK2G 0 | CDK10 = 0 | CDK2 = 0 | CDK3 = 0 | CDK4 = 0 | CDK5 = 0 | CDK6 = 0

O=C(Nc1ccc(Cl)cc1)C1CCCN(C(=O)c2cc(C(F)(F)F)cc(C(F)(F)F)c2)C1 (stereo not given) (10 µM)
inactive: BRAF_V600E 0 | BTK 0 | CAMK2A 0 | CAMK2G 0 | CDK10 = 0 | CDK2 = 0 | CDK3 = 0 | CDK4 = 0 | CDK5 = 0 | CDK6 = 0

Of the compounds above, two contain a CF3 group:
Cc1cc(CSc2ccccc2C(=O)NCCNc2ccc(C(F)(F)F)cc2[N+](=O)[O-])on1 (10 µM)
inactive: BRAF_V600E 0 | BTK 0 | CAMK2A 0 | CAMK2G 0 | CDK10 = 0 | CDK2 = 0 | CDK3 = 0 | CDK4 = 0 | CDK5 = 0 | CDK6 = 0

O=C(Nc1ccc(Cl)cc1)C1CCCN(C(=O)c2cc(C(F)(F)F)cc(C(F)(F)F)c2)C1 (stereo not given) (10 µM)
inactive: BRAF_V600E 0 | BTK 0 | CAMK2A 0 | CAMK2G 0 | CDK10 = 0 | CDK2 = 0 | CDK3 = 0 | CDK4 = 0 | CDK5 = 0 | CDK6 = 0

Later entries:

CC(C)CCN1c2nc(Nc3cc(F)c(O)c(F)c3)ncc2N(C)C(=O)C1C (stereo not given) (2.5 µM)
inactive: BRAF_V600E 0 | BTK 0 | CAMK2A 0 | CAMK2G 0 | CDK10 = 0 | CDK2 = 0 | CDK3 = 0 | CDK4 = 0 | CDK5 = 0 | CDK6 = 0

O=C1CC[C@H](NC(=O)Cc2ccccc2)C(=O)N1 [Antineoplaston A10] (10 µM)
inactive: BRAF_V600E 0 | BTK 0 | CAMK2A 0 | CAMK2G 0 | CDK10 = 0 | CDK2 = 0 | CDK3 = 0 | CDK4 = 0 | CDK5 = 0 | CDK6 = 0

CNC(=O)c1cc2c(Oc3ccc(NC(=O)C4(C(=O)Nc5ccc(F)cc5)CC4)cc3)ccnc2cc1OC (2.5 µM)
inactive: BRAF_V600E 0 | BTK 0 | CAMK2A 0 | CAMK2G 0 | CDK10 = 0 | CDK2 = 0 | CDK3 = 0 | CDK4 = 0 | CDK5 = 0 | CDK6 = 0
